This note sets out measurements from US20050215770A1.

First the molecules themselves.
T1: Recombinant soluble human Flag-tagged NogoR (amino acids 1 to 309 of SEQ ID NO:2) (human) (UniProt Q9BZR6)
T1 sequence (chain, biotinylated with Sulfo-NHS-LC-Biotin): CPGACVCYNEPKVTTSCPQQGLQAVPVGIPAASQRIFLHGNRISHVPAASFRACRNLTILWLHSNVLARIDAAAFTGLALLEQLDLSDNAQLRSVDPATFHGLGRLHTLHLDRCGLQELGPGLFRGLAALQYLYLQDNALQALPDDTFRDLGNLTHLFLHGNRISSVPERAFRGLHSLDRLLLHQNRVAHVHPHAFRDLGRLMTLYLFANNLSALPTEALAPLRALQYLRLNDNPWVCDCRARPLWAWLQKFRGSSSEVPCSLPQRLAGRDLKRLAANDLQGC

B1: NGF1D09 (scFv)
scFv: QLQLQESGSGLVKPSQTLSLTCAVSGGSISSGDYSWSWIRQPPGKGLEWIGYIYHSGSTYYNPSLKSRVTISIDRSKNQFSLKLSSVTAADTAVYYCARVGDYKEIDAFDIWGKGTLVTVSSGGGGSGGGGSGGGGSAQPVLTQPPSASGTPGQRVTISCSGSSSNIGTNTVNWYQQLPGTAPKLLIYSNTQRPSGVPDRFSGSKSGTSASLAISGLQSEDEADYYCGAWDDSLISGVFGGGTKLTVLG
B2: NGF1E09 (scFv)
scFv: EVQLVETGAEVRKPGSSVKVSCKASGGIFKKYAFSWVRQAPGQGLEWLGRTIPSIGNNNYIQSLKGRVTLTADESTNTVYMDLRNLRSEDTAIYFCAGAPKRFGESPNLWGRGTLVTVSSGGGGSGGGGSGGGGSAQAVVIQEPSLSVSPGGTVTLTCGLSSGSVSTTNYPTWYQQTPGQSPRTVIYDTYTRSSGVPDRFSGSILGNKAALTITGAQADDESDYYCAFYLGEGISVFGGGTKLTVLG
B3: NGF1B09 (scFv)
scFv: EVQLVQSGAEVKKSGSSVKVSCKASGDIFTNYAINWVRQAPGQGLEWMGRILPLFGTTNYAQRFQGRITITADESTGTAYMELSSLKSDDTAVYYCARPLSGDYYDTSGYHWWGKGTLVTVSSGGGGSGGGGSGGGGSAQSVLTQPPSASGTPGQRVTISCSGRSGNIGTNAVNWYQQLPGAAPKLIIYSNSQRPSGVPHRFSASRSGTSASLAISGLQSEDEADYYCSAWDDSLDGVVFGGGTKVTVLG
B4: NGF2D08 (scFv)
scFv: QLQLQESGPGLVKPSETLSLTCDVSGSSISSAYYWGWVRHSPGKGLEWIGSSYNNGPAYYNPSLIRRVTTSRDTSKNQVSLKMTSMTAADTAVYYCARGLRDSSGYYFGGYYFDLWGQGTLVTVSSGGGGSGGGGSGGGGSAQAVLTQPSSLSASPGALASLTCTLRSGINVTSYRIYWHQQKPGSPPQYLLRYKSDSDKQQGSGVPSRFSGSKDASANAGILLISGLQSEDEADYYCLIWHNSAVVFGGGTKLTVLG
B5: NGF1G03 (scFv)
scFv: QVQLQESGPGLVKPSETLSLTCTVSGDSIGSSIYYWAWIRQPPGKGLEWIGRIYYSGTTNYNPSLKSRVTMSVDTSKNQFSLKLSSVTAADTAVYYCARSKGTKWERREFDYWGRGTMVTVSSGGGGSGGGGSGGGGSAQAVLTQPSSASGTPGQTVTISCSGSSSNIGSNPAHWYQQFPGTAPTLIIYYDGRRPSGVPDRFSGSKSGTSASLAISGLQSEDEADFYCASWDDNLNEYVFGTGTKVTVLG
B6: NGF1C10 (scFv)
scFv: EVQLVQSGAEVKKPGESLKISCKGSGYNITNHWIAWVRQMPGKGLEWMGMIYPDDSDTRYSPSFQGQVTMSADKSINTAHLQWRSLKASDTAMYYCARHAHYDGSGYYYFDYWGKGTMVTVSSGGGGSGGGGSGGGGSAQSVLTQPPSVSGAPGQRVTISCTGSRSNIGAGYDVHWYQQLPGTAPKVLIFGNSNRPSGVLDRFSGSKSGTSASLAITGLQAEDEADYYCRSYDSSMSGSRVFGTGTKVTVLG
B7: NGF1B02 (scFv)
scFv: EVQLVQSGAEVKKPGSSVKVSCKASGDTSSEYSITWVRQVPGQGLEWMGGIIPIFGATYYAQNFQGRVTISADESTSTAYMELGSLRSGDTAVYYCATVIPPTIGGVTHDSEGMDVWGRGTLVTVSSGGGGSGGGGSGGGGSAQSVLTQPPSASGTPGQRVTISCSGSSSNIGSNYVYWYQQLPGTAPKLLIYRNNQRPSGVPDRFSGSKSGTSASLAISGLRSEDEADYYCAAWDDGHNGWVFGGGTKVTVLG
B8: NGF2D02 (scFv)
scFv: EVQLVQSGAEVKKPGSSVKVSCKASGGTLSSYAINWVRQAPGQGLEWMGQIIPMFGTMNYAQKFQGRVTISADESTGTAYMELSSLRYDDTATYYCAREVSGTRNYYYYGLDVWGQGTLVTVSSGGGGSGGGGSGGGGSAQAVLTQPSSVSGAPGQRVTIPCTGSSSNIGAGYDVHWYQHLPGTAPKLLIYGNINRPSGVPDRFSGSKSGTSASLAITGLQAEDEADYYCQSYDNRLSVSVVFGGGTQLTVLS
B9: NGF2E11 (scFv)
scFv: QVQLVQSGGGVVQPGRSLRLSCAASGLSFSSYGMHWVRQAPGKGLEWVAVIWFDGSNKYYADSVKGRFTISRDTSKNTLYLQMNSLRVEDTAVYYCAGEVRGSFGEFDYWGRGTMVTVSSGGGGSGGGGSGGGGSAQSVLTQPPSVSVAPGKTARITCGGNNVESKSVQWYQQKSGQAPVLVIYYNSYRPSGIPERFSGSNSGNTATLTISRVEAGDAADYYCQVWDSTTDHYVFGSGTKVTVLG
B10: NGF1H06 (scFv)
scFv: QVQLQQSGPGLVKPSETLSLTCTVSGDSITSYYWSWVRQPPGKTLEWIGYIFDTRTTKYNPSLKSRVTISADTSKNQFSLKLSSVTAADTAVYYCARDAGTIFDYWGQGTMVTVSSGGGGSGGGGSGGGGSAQSVLTQPPSVSVAAGQTARITCGEANIGRRSVHWYQRRPGQAPLMVIYYDTARRSGIPERFSGSNSGDTATLTISRVEAGDEADYYCQAWDFSSDHPVFGGGTKVTVLG
B11: NGF2E08 (scFv)
scFv: QVQLQESGPGLVRPSETLSLTCTVSGSSVTSPYYWAWVRQPPGKALEWIASIYHSGSTHYNPSLKSRVTVSMDTSNNRFSLKVTSVTVTDTAVYYCARHASSYYGSFVQYHYYGLQVWGKGTLVTVSSGGGGSGGGGSGGGGSALVVVMTQSPVSLPVTRGQPASISCRSTEGLVYSDGNTYLNWFQQRPGQPPRRLVYQVSRRDPGVPDRFSGSGSGTDFTLEISRVEAEDLGIYFCMQGTHWPYTFGQGTKVEIKR
B12: NGF1H02 (scFv)
scFv: QVQLVQSGGGLLQPGRSLRLSCAGSGFSFRDHALSWFRQAPGKGLEWVGFIRSKGYGGTTEYAASMAGRLNISRDDSKSIAYLQVNSLKTEDTAVYYCSRDSDYYASSGMGYAFDMWGKGTMVTVSSGGGGSGGGGSGGGGSAQAVLTQPSSVSGAPGQRVTIPCTGSSSNIGAGYGVHWYQQLPGTAPKLLIYDSDKRPSGVPDRFSGSKSGSSGSLAITGLQPEDEADYYCQSYDSSLSGSNVFGTGTKVTVLG
B13: NGF1B03 (scFv)
scFv: EVQLVQSGAEVKKPGESLRISCKGSGYSFSSYWISWVRQVPGKGLEWMGRIDPSDSYTNYSPSFQGHVTISADKSISTAYLHWSSLKASDTAMYYCATLASADTGMVTDYKYYDMDVWGRGTLVTVSSGGGGSGGGGSGGGGSAQSVVTQPPSVSAAPGQKVTISCSGSNSNIGKNYVSWYQQLPGTAPKLLISDNNARPSGIPDRFSGSKSGASGTLDITGLQTGDEAAYYCKSWDSSLRAEVFGGGTKLTVLG
B14: NGF1A05 (scFv)
scFv: EVQLVQSGGGLVQPGGSLRLSCAASGFGFSSYWMNWVRLAPGKGLEWVASIKQDGSEMFYVDSVKGRFTISRDNAKNSLSLQMNSLRAEDTAVYYCARDLVRITLVGVITKSYGMDVWGRGTMVTVSSGGGGSGGGGSGGGGSALDVVMTQSPDSLAVSLGERATINCKSSQSVLYSSNNQNYLAWYQQRPGQPPKMLIYGASTRASGAPDRYSGGGSGTDFTLTISSLQPEDVAVYYCQQYYSLPITFGQGTRLEIKR

Results are given in words; binding and its absence hold for the method and conditions named. Some binding calls cover weakened binding; strength is not graded here. Where a sequence is shown, tags or fusion partners need not be part of it.

This test deals with T1, Recombinant soluble human Flag-tagged NogoR (amino acids 1 to 309 of SEQ ID NO:2) (human). Description: ECL phage screen (Example 1).
As for B1, the binding entry is recorded as “binds”. In the case of B2, the binding result is recorded as “binds”. As for B3, the binding entry is listed as “binds”. Turning to B4, the binding result was “binds”. As for B5, the binding result is recorded as “binds”. For B6, the binding result is reported as “binds”. Regarding B7, the binding entry was “binds”. On to B8, for which the binding entry is “binds”. As for B9, the binding entry is given as “binds”. On to B10, for which the binding result is recorded as “binds”. Take B11: the binding entry was “binds”. As to B12, the binding entry is “binds”. As for B13, the binding result was “binds”. B14: the binding entry is listed as “binds”.
